# The other results are listed elsewhere or left out.
# B1: Awp1 (Candida glabrata) (protein)
# chain: MSLITIFAFLIKATLVLSLDILTPTTLTGDQTFNEDVSVVSSLTLNDGSQYLFNNLLQIAPSSASVTANALAAVSVFTFSLPPSSSLSNSGTLIISNSNTGPSTEQHIVITPNVMANTGTITLSLAHTNTDSSSTLIIDPVTFYNTGTINYESIGSETNDPSLTGNILSIGSSGRTLQNLGTINLNAANSYYLLGTITENSGSINVQKGFLYVNALDFIGNTINLSTTTALAFISPVSQVVRVRGVFFGNIIASVGSSGTFSYNTQTGILTVTTNGVYSYDIGCGYNPALMSGQQETLSFQGNPYDTFLVLVNQPIPSDLTCAAVSSSITPSSSVEPSSSVVPSSSVEPSSSVEPSSSVEPSSSVEPSSSVEPSSSVEPSSSVEPSSSVEPSSSVEPSSSVEPSSSVEPSSSVEPSSSVEPSSSVEPSSSVEPSSSVEPSSSVEPSSSVEPSSSVEPSSLIVPSSSVEPSSSVLPSSSVVPSSSVEPSTPPIPSSSVEPSSSVVPSSPAVPSSSVEPSTPPIPSSSVVSASVFDTSSTLPSSPSVPPSSVSPSTISTPSSSAAPSSFCPTCVSSGTPPAPSSSAIVPTSSAGGGNGGDNREPGAAGQPGAAGQPGAAGQPGAAGQPGAAGQPGAAGQPGAAGQPGAAGQPGAAGQPGAAGQPGAGFGVGSEQPTPGAGAGSGSADGNQSGTGSGTGNGQQGSGQAGSGQAGSGQEGSGQAGSGQAGSGQAGSGQAGSGQAGLDNTASGQSEGGQASAMDGDQSGRDGQSNSGSLLQPNAQQGTGSGTGSDIGADQASGESPGQIGDAQPGSGTDQSSGRHSLAAEARTSQSHSLAADARTRSTTRQTSVIAPDTAPGTASGTAPGTAPGTAVVTTFHGCGTVNHKGMINILLALALLVLL
# Experiments:
# Experiment in all cases: glycan array binding signal (z-score within array); higher = stronger binding
# Conditions in all cases: glycan notation: IUPAC condensed, linker removed
# [1] = molecular target: GalNAc(b1-4)GlcNAc(b1-2)Man
# Outline: (§1)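 Glycan array binding is given as a within-array Z-score, which can be read as non-binding when negative. The arrays, 3228 of them, came from the Consortium for Functional Glycomics database and were retained only where the protein sequence was available. Z-scores were averaged across arrays of the same protein sequence at different concentrations or buffers and across linkers.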
# [2] = molecular target: GalNAc(b1-4)GlcNAc(b1-2)Man(a1-3)[GalNAc(b1-4)GlcNAc(b1-2)Man(a1-6)]Man(b1-4)GlcNAc(b1-4)GlcNAc
# Outline: as §1
# [3] = molecular target: GalNAc(b1-4)GlcNAc(b1-3)GalNAc(b1-4)GlcNAc
# Outline: as §1
# GalNAc(b1-4)GlcNAc6S = molecular target: GalNAc(b1-4)GlcNAc6S
# Outline: as §1
# GalNAc(b1-6)GalNAc = molecular target: GalNAc(b1-6)GalNAc
# Outline: as §1
# GalNAc3S(b1-4)GlcNAc = molecular target: GalNAc3S(b1-4)GlcNAc
# Outline: as §1
# GalNAc3S(b1-4)GlcNAc3S = molecular target: GalNAc3S(b1-4)GlcNAc3S
# Outline: as §1
# [4] = molecular target: GalNAc3S(b1-4)[Fuc(a1-3)]GlcNAc
# Outline: as §1
# GalNAc4S6S(b1-4)GlcNAc = molecular target: GalNAc4S6S(b1-4)GlcNAc
# Outline: as §1
# GalNAc6S(b1-4)GlcNAc = molecular target: GalNAc6S(b1-4)GlcNAc
# Outline: as §1
# Glc(a1-4)Glc = molecular target: Glc(a1-4)Glc
# Outline: as §1
# [5] = molecular target: Glc(a1-4)Glc(a1-4)Glc(a1-4)Glc
# Outline: as §1
# Glc(a1-6)Glc(a1-6)Glc = molecular target: Glc(a1-6)Glc(a1-6)Glc
# Outline: as §1
# [6] = molecular target: Glc(a1-6)Glc(a1-6)Glc(a1-6)Glc
# Outline: as §1
# Glc(b1-4)Glc = molecular target: Glc(b1-4)Glc
# Outline: as §1
# Glc(b1-6)Glc = molecular target: Glc(b1-6)Glc
# Outline: as §1
# GlcA(b1-3)Gal = molecular target: GlcA(b1-3)Gal
# Outline: as §1
# GlcA(b1-3)GlcNAc = molecular target: GlcA(b1-3)GlcNAc
# Outline: as §1
# GlcA(b1-6)Gal = molecular target: GlcA(b1-6)Gal
# Outline: as §1
# [7] = molecular target: GlcA3S(b1-3)Gal(b1-4)GlcNAc(b1-2)Man
# Outline: as §1
# [8] = molecular target: GlcA3S(b1-3)Gal(b1-4)GlcNAc(b1-3)Gal(b1-4)Glc
# Outline: as §1
# [9] = molecular target: GlcNAc(a1-3)Gal(b1-4)GlcNAc
# Outline: as §1
# [10] = molecular target: GlcNAc(a1-4)Gal(b1-3)GlcNAc
# Outline: as §1
# [11] = molecular target: GlcNAc(a1-4)Gal(b1-4)GalNAc
# Outline: as §1
# [12] = molecular target: GlcNAc(a1-4)Gal(b1-4)GlcNAc
# Outline: as §1
# [13] = molecular target: GlcNAc(a1-4)Gal(b1-4)GlcNAc(b1-3)Gal(b1-4)Glc
# Outline: as §1
# [14] = molecular target: GlcNAc(a1-4)Gal(b1-4)GlcNAc(b1-3)Gal(b1-4)GlcNAc
# Outline: as §1
# [15] = molecular target: GlcNAc(a1-4)Gal(b1-4)GlcNAc(b1-3)Gal(b1-4)GlcNAc(b1-3)Gal(b1-4)GlcNAc
# Outline: as §1
# [16] = molecular target: GlcNAc(a1-4)Gal(b1-4)GlcNAc(b1-3)Gal(b1-4)[Fuc(a1-3)]GlcNAc(b1-3)Gal(b1-4)[Fuc(a1-3)]GlcNAc
# Outline: as §1
# [17] = molecular target: GlcNAc(a1-6)Gal(b1-4)GlcNAc
# Outline: as §1
binder,measurement,setting,value
B1,glycan array binding signal (z-score),[1],-1.79
same,glycan array binding signal (z-score),[2],0.147
same,glycan array binding signal (z-score),[3],1.95
same,glycan array binding signal (z-score),GalNAc(b1-4)GlcNAc6S,-0.514
same,glycan array binding signal (z-score),GalNAc(b1-6)GalNAc,2.29
same,glycan array binding signal (z-score),GalNAc3S(b1-4)GlcNAc,0.145
same,glycan array binding signal (z-score),GalNAc3S(b1-4)GlcNAc3S,-0.122
same,glycan array binding signal (z-score),[4],-0.247
same,glycan array binding signal (z-score),GalNAc4S6S(b1-4)GlcNAc,1.51
same,glycan array binding signal (z-score),GalNAc6S(b1-4)GlcNAc,1.42
same,glycan array binding signal (z-score),Glc(a1-4)Glc,-0.3
same,glycan array binding signal (z-score),[5],0.159
same,glycan array binding signal (z-score),Glc(a1-6)Glc(a1-6)Glc,-0.842
same,glycan array binding signal (z-score),[6],-1.38
same,glycan array binding signal (z-score),Glc(b1-4)Glc,-0.497
same,glycan array binding signal (z-score),Glc(b1-6)Glc,-0.716
same,glycan array binding signal (z-score),GlcA(b1-3)Gal,0.728
same,glycan array binding signal (z-score),GlcA(b1-3)GlcNAc,-0.501
same,glycan array binding signal (z-score),GlcA(b1-6)Gal,-0.088
same,glycan array binding signal (z-score),[7],0.488
same,glycan array binding signal (z-score),[8],0.4
same,glycan array binding signal (z-score),[9],1.21
same,glycan array binding signal (z-score),[10],0.179
same,glycan array binding signal (z-score),[11],-0.667
same,glycan array binding signal (z-score),[12],0.107
same,glycan array binding signal (z-score),[13],-0.309
same,glycan array binding signal (z-score),[14],-0.539
same,glycan array binding signal (z-score),[15],1.35
same,glycan array binding signal (z-score),[16],0.05
same,glycan array binding signal (z-score),[17],-0.703

# Two entries picked at random from the list so far:
binder,measurement,setting,value
B1,glycan array binding signal (z-score),[9],1.21
same,glycan array binding signal (z-score),GalNAc3S(b1-4)GlcNAc,0.145

# Source: the supplement of paper PMC8728848
